Data source: PubChem BioAssay AID1259300 (Sanger Institute, 2017)
Test: 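Which knock-downs harm HCT15 alone or synergise with the drugs BYL719, cetuximab or trametinib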 (primary screen). System: HCT15 colorectal cancer cells. Knock-down reagent: siRNA pool against human genes. Challenge: anchor drug or DMSO vehicle added 24 h after seeding: BYL719 1 µM, cetuximab 5 µg/ml, trametinib 10 nM; drug doses chosen to barely affect viability alone. Measurement: 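Replicate-mean viability relative to non-targeting pool control with robust z-score for knock-down without drug; per-drug synergy scores for BYL719 (1 µM), cetuximab (5 µg/ml), trametinib (10 nM)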. Direction: viability z-score, siRNA alone: higher = more viable cells after knock-down; viability vs non-targeting, siRNA alone: higher = more viable cells; synergy score with BYL719 and synergy score with cetuximab and synergy score with trametinib: higher = stronger synergy of knock-down with drug. Rule for the call: 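Called active (essential) if viability z-score with knock-down alone falls below -3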. Calls: active = essential: knock-down alone lowers viability (z below -3); inactive = no strong viability loss with knock-down alone.
In all, the deposit lists 794 reagents; this is an unselected part. 18 of all reagents (2.3%) count as active. 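Calls rest on knock-down alone, not drug synergy; depositor treated synergy scores above 0.15 as synergistic; drug doses alone had little viability effect.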 Viability is capped at 1. Not given: the amount of reagent, the time to read-out.

Target gene	viability z-score, siRNA alone	viability vs non-targeting, siRNA alone	synergy score with BYL719	synergy score with cetuximab	synergy score with trametinib	activity call
CAMKK1	-0.0304	0.952	0.0904	0.093	-0.0271	inactive
TLK2	-0.368	0.928	0.0677	-0.00148	-0.163	inactive
SYK	0.0696	0.96	0.18	-0.026	0.084	inactive
ADCK1	0.625	1	0.279	0.0466	0.132	inactive
PAK3	-1.1	0.875	0.0788	-0.125	-0.0843	inactive
IRAK4	0.625	1	0.182	0	-0.0984	inactive
TRPM7	0.0437	0.958	0.135	0.0844	-0.0944	inactive
CDKL5	0.625	1	0.0613	0	0.00503	inactive
GNAS	0.202	0.969	0.242	0.139	-0.104	inactive
WHR1	0.571	0.996	0.121	0.0238	-0.102	inactive
PACSIN1	0.625	1	0.176	0.132	0.0204	inactive
COQ8B	0.0594	0.959	-0.0855	0.0262	-0.135	inactive
CSNK1E	0.566	0.996	0.0995	0.0149	0.000957	inactive
NR2F2	-0.959	0.885	0.107	-0.0119	-0.0694	inactive
PDK1	-0.646	0.908	0.0113	-0.0852	0.0291	inactive
PLK3	0.625	1	0.204	0	0.167	inactive
HK3	0.424	0.985	0.163	-0.00433	-0.0295	inactive
PKIA	-0.669	0.906	0.0779	-0.0383	-0.133	inactive
SBK1	-0.566	0.913	-0.105	-0.0866	-0.0626	inactive
CSNK1G3	0.625	1	0.257	0.183	0.0574	inactive
NR4A2	-2.04	0.806	0.155	-0.14	-0.0811	inactive
DGKH	-0.0372	0.952	0.119	-0.0199	-0.0339	inactive
PDK4	0.339	0.979	0.197	0.0305	0.0676	inactive
MYO3B	0.625	1	0.274	0.0323	0.117	inactive
STK40	0.321	0.978	0.198	0.0364	-0.0923	inactive
NME6	-1.18	0.869	0.129	0.128	-0.111	inactive
MAP4K2	-0.927	0.887	0.0493	0.0199	-0.0342	inactive
VRK2	0.347	0.98	0.138	0.0505	-0.0468	inactive
CDK9	0.625	1	0.214	0.108	0.0781	inactive
EPHA8	0.477	0.989	0.00233	-0.0107	-0.108	inactive
IKBKB	0.625	1	0.264	0.0911	0.0539	inactive
MYLK	0.613	0.999	0.168	0.169	-0.0362	inactive
SRMS	0.625	1	0.285	0.121	-0.0603	inactive
TP53BP1	-1.08	0.876	0.0375	-0.0663	-0.155	inactive

4 entries already listed, ordered by “synergy score with trametinib”, lowest first.
Target gene	viability z-score, siRNA alone	viability vs non-targeting, siRNA alone	synergy score with BYL719	synergy score with cetuximab	synergy score with trametinib	activity call
PKIA	-0.669	0.906	0.0779	-0.0383	-0.133	inactive
SBK1	-0.566	0.913	-0.105	-0.0866	-0.0626	inactive
HK3	0.424	0.985	0.163	-0.00433	-0.0295	inactive
PLK3	0.625	1	0.204	0	0.167	inactive
